# Experimental data: the supplement of paper PMC11438910
# Some of the results follow. The signal is at background level for most entries.
# Key:
# Assay in all cases: fluorescence intensity of antibody binding to polysaccharide-coupled beads; higher = stronger binding
# [1] = molecular target: pneumococcal polysaccharide Pn47A
# [2] = molecular target: pneumococcal polysaccharide Pn47F
# [3] = molecular target: pneumococcal polysaccharide Pn48
# [4] = molecular target: pneumococcal polysaccharide Pn5
# [5] = molecular target: pneumococcal polysaccharide Pn6A
# [6] = molecular target: pneumococcal polysaccharide Pn6B
# [7] = molecular target: pneumococcal polysaccharide Pn6C
# [8] = molecular target: pneumococcal polysaccharide Pn6D
# [9] = molecular target: pneumococcal polysaccharide Pn7A
# [10] = molecular target: pneumococcal polysaccharide Pn7B
# [11] = molecular target: pneumococcal polysaccharide Pn7C
# [12] = molecular target: pneumococcal polysaccharide Pn7F
# [13] = molecular target: pneumococcal polysaccharide Pn8
# [14] = molecular target: pneumococcal polysaccharide Pn9A
# [15] = molecular target: pneumococcal polysaccharide Pn9L
# [16] = molecular target: pneumococcal polysaccharide Pn9N
# [17] = molecular target: pneumococcal polysaccharide Pn9V
# [18] = molecular target: pneumococcal polysaccharide C-Poly-1
# [19] = molecular target: pneumococcal polysaccharide C-Poly-2
# [20] = molecular target: pneumococcal polysaccharide Pn1
# [21] = molecular target: pneumococcal polysaccharide Pn10A
# [22] = antibody concentration 2337.65 ng/mL
# [23] = antibody concentration 12500 ng/mL
# [24] = antibody concentration 0.1 ng/mL
# [25] = antibody concentration 0.534724 ng/mL
# [26] = antibody concentration 2.8593 ng/mL
# [27] = antibody concentration 15.2894 ng/mL
# [28] = antibody concentration 81.7561 ng/mL
# [29] = antibody concentration 437.17 ng/mL
binder,measurement,setting,value
4-127.5 (protein) chain 1: QVQLQESGPGLVKPSETLSLTCAVSGYSISSGYGWSWIRQPPGKGLEWIGYIGGSDSSTNYNPSLKSRVTISKDTSKNQLSLKLRSVTAADTAVYYCGSRGAVAGLGGLDSWGQGLLVTVSS chain 2: QSVLTQPPSVSGAPGQRVTISCTGSSSNIGAGYGVQWYQQLPGTAPKLLIYENNKRPSGVFDRFSGSQSGTSGSLTITGLQSEDEADYYCQSYDSSLKAVLFGGGTRLTVL,fluorescence intensity,[1]; [22],17.5 MFI
same,fluorescence intensity,[1]; [23],25 MFI
same,fluorescence intensity,[2]; [24],12.5 MFI
same,fluorescence intensity,[2]; [25],12.5 MFI
same,fluorescence intensity,[2]; [26],13 MFI
same,fluorescence intensity,[2]; [27],12.5 MFI
same,fluorescence intensity,[2]; [28],13.5 MFI
same,fluorescence intensity,[2]; [29],12.5 MFI
same,fluorescence intensity,[2]; [22],15 MFI
same,fluorescence intensity,[2]; [23],43 MFI
same,fluorescence intensity,[3]; [24],22.5 MFI
same,fluorescence intensity,[3]; [25],21.5 MFI
same,fluorescence intensity,[3]; [26],19 MFI
same,fluorescence intensity,[3]; [27],20.5 MFI
same,fluorescence intensity,[3]; [28],23 MFI
same,fluorescence intensity,[3]; [29],24 MFI
same,fluorescence intensity,[3]; [22],29.5 MFI
same,fluorescence intensity,[3]; [23],35 MFI
same,fluorescence intensity,[4]; [24],10.5 MFI
same,fluorescence intensity,[4]; [25],10 MFI
same,fluorescence intensity,[4]; [26],9.5 MFI
same,fluorescence intensity,[4]; [27],9 MFI
same,fluorescence intensity,[4]; [28],9.5 MFI
same,fluorescence intensity,[4]; [29],10 MFI
same,fluorescence intensity,[4]; [22],13.5 MFI
same,fluorescence intensity,[4]; [23],70 MFI
same,fluorescence intensity,[5]; [24],20.2 MFI
same,fluorescence intensity,[5]; [25],21.5 MFI
same,fluorescence intensity,[5]; [26],21.5 MFI
same,fluorescence intensity,[5]; [27],22.5 MFI
same,fluorescence intensity,[5]; [28],22 MFI
same,fluorescence intensity,[5]; [29],23 MFI
same,fluorescence intensity,[5]; [22],29 MFI
same,fluorescence intensity,[5]; [23],28.2 MFI
same,fluorescence intensity,[6]; [24],20.8 MFI
same,fluorescence intensity,[6]; [25],18.5 MFI
same,fluorescence intensity,[6]; [26],20.5 MFI
same,fluorescence intensity,[6]; [27],20 MFI
same,fluorescence intensity,[6]; [28],21.5 MFI
same,fluorescence intensity,[6]; [29],21 MFI
same,fluorescence intensity,[6]; [22],25 MFI
same,fluorescence intensity,[6]; [23],28 MFI
same,fluorescence intensity,[7]; [24],18.8 MFI
same,fluorescence intensity,[7]; [25],22 MFI
same,fluorescence intensity,[7]; [26],29.8 MFI
same,fluorescence intensity,[7]; [27],36.5 MFI
same,fluorescence intensity,[7]; [28],46.2 MFI
same,fluorescence intensity,[7]; [29],55 MFI
same,fluorescence intensity,[7]; [22],57.8 MFI
same,fluorescence intensity,[7]; [23],78.2 MFI
same,fluorescence intensity,[8]; [24],17.5 MFI
same,fluorescence intensity,[8]; [25],17 MFI
same,fluorescence intensity,[8]; [26],18 MFI
same,fluorescence intensity,[8]; [27],17.5 MFI
same,fluorescence intensity,[8]; [28],18.5 MFI
same,fluorescence intensity,[8]; [29],18.5 MFI
same,fluorescence intensity,[8]; [22],23 MFI
same,fluorescence intensity,[8]; [23],30.5 MFI
same,fluorescence intensity,[9]; [24],22 MFI
same,fluorescence intensity,[9]; [25],21 MFI
same,fluorescence intensity,[9]; [26],20.5 MFI
same,fluorescence intensity,[9]; [27],20.2 MFI
same,fluorescence intensity,[9]; [28],22.5 MFI
same,fluorescence intensity,[9]; [29],25 MFI
same,fluorescence intensity,[9]; [22],66.5 MFI
same,fluorescence intensity,[9]; [23],527 MFI
same,fluorescence intensity,[10]; [24],17 MFI
same,fluorescence intensity,[10]; [25],17.2 MFI
same,fluorescence intensity,[10]; [26],16.8 MFI
same,fluorescence intensity,[10]; [27],16.2 MFI
same,fluorescence intensity,[10]; [28],15.8 MFI
same,fluorescence intensity,[10]; [29],18 MFI
same,fluorescence intensity,[10]; [22],25 MFI
same,fluorescence intensity,[10]; [23],78.5 MFI
same,fluorescence intensity,[11]; [24],18.5 MFI
same,fluorescence intensity,[11]; [25],18 MFI
same,fluorescence intensity,[11]; [26],17.5 MFI
same,fluorescence intensity,[11]; [27],18.5 MFI
same,fluorescence intensity,[11]; [28],15.5 MFI
same,fluorescence intensity,[11]; [29],19 MFI
same,fluorescence intensity,[11]; [22],23.2 MFI
same,fluorescence intensity,[11]; [23],58.5 MFI
same,fluorescence intensity,[12]; [24],15 MFI
same,fluorescence intensity,[12]; [25],16 MFI
same,fluorescence intensity,[12]; [26],15.5 MFI
same,fluorescence intensity,[12]; [27],16 MFI
same,fluorescence intensity,[12]; [28],15.5 MFI
same,fluorescence intensity,[12]; [29],17.5 MFI
same,fluorescence intensity,[12]; [22],24 MFI
same,fluorescence intensity,[12]; [23],199 MFI
same,fluorescence intensity,[13]; [24],21 MFI
same,fluorescence intensity,[13]; [25],23 MFI
same,fluorescence intensity,[13]; [26],21 MFI
same,fluorescence intensity,[13]; [27],22.5 MFI
same,fluorescence intensity,[13]; [28],22.8 MFI
same,fluorescence intensity,[13]; [29],25 MFI
same,fluorescence intensity,[13]; [22],29.8 MFI
same,fluorescence intensity,[13]; [23],36.2 MFI
same,fluorescence intensity,[14]; [24],19.2 MFI
same,fluorescence intensity,[14]; [25],19.5 MFI
same,fluorescence intensity,[14]; [26],20.2 MFI
same,fluorescence intensity,[14]; [27],19.2 MFI
same,fluorescence intensity,[14]; [28],19.5 MFI
same,fluorescence intensity,[14]; [29],19.5 MFI
same,fluorescence intensity,[14]; [22],29 MFI
same,fluorescence intensity,[14]; [23],82.2 MFI
same,fluorescence intensity,[15]; [24],18 MFI
same,fluorescence intensity,[15]; [25],18 MFI
same,fluorescence intensity,[15]; [26],18 MFI
same,fluorescence intensity,[15]; [27],18.2 MFI
same,fluorescence intensity,[15]; [28],17.2 MFI
same,fluorescence intensity,[15]; [29],18 MFI
same,fluorescence intensity,[15]; [22],22.2 MFI
same,fluorescence intensity,[15]; [23],49.8 MFI
same,fluorescence intensity,[16]; [24],17 MFI
same,fluorescence intensity,[16]; [25],16 MFI
same,fluorescence intensity,[16]; [26],16 MFI
same,fluorescence intensity,[16]; [27],17.5 MFI
same,fluorescence intensity,[16]; [28],16.5 MFI
same,fluorescence intensity,[16]; [29],18.5 MFI
same,fluorescence intensity,[16]; [22],22.5 MFI
same,fluorescence intensity,[16]; [23],60 MFI
same,fluorescence intensity,[17]; [24],15.8 MFI
same,fluorescence intensity,[17]; [25],15 MFI
same,fluorescence intensity,[17]; [26],15.5 MFI
same,fluorescence intensity,[17]; [27],15.5 MFI
same,fluorescence intensity,[17]; [28],16.2 MFI
same,fluorescence intensity,[17]; [29],16 MFI
same,fluorescence intensity,[17]; [22],15.5 MFI
same,fluorescence intensity,[17]; [23],20.5 MFI
4-127.4 (protein) chain 1: QVQLQESGPGLVKPSETLSLTCGVSGYSISSGHGWSWIRQPPGKGLEWIGYVGGSSGNTNYNPSLKSRVTISKDTSKNQISLKLSSVTAADTAVYYCARRGISGTFGLVDYWGQGVLVTVSS chain 2: QSVLTQPPSVSGAPGQRVTISCTGSSSNIGGYYVQWYQQLPGSAPKLLIYDNDQRPSGVSDRISGSRSGTSASLTITGLQSEDEADYYCQSFDSFLRGVLFGGGTRLTVL,fluorescence intensity,[18]; [24],25 MFI
same,fluorescence intensity,[18]; [25],27 MFI
same,fluorescence intensity,[18]; [26],29 MFI
same,fluorescence intensity,[18]; [27],27.5 MFI
same,fluorescence intensity,[18]; [28],28.5 MFI
same,fluorescence intensity,[18]; [29],30 MFI
same,fluorescence intensity,[18]; [22],35.5 MFI
same,fluorescence intensity,[18]; [23],82.5 MFI
same,fluorescence intensity,[19]; [24],19.5 MFI
same,fluorescence intensity,[19]; [25],20.5 MFI
same,fluorescence intensity,[19]; [26],20.5 MFI
same,fluorescence intensity,[19]; [27],19.8 MFI
same,fluorescence intensity,[19]; [28],21.5 MFI
same,fluorescence intensity,[19]; [29],23.5 MFI
same,fluorescence intensity,[19]; [22],29 MFI
same,fluorescence intensity,[19]; [23],68.8 MFI
same,fluorescence intensity,[20]; [24],13.5 MFI
same,fluorescence intensity,[20]; [25],13 MFI
same,fluorescence intensity,[20]; [26],13 MFI
same,fluorescence intensity,[20]; [27],14 MFI
same,fluorescence intensity,[20]; [28],14 MFI
same,fluorescence intensity,[20]; [29],16 MFI
same,fluorescence intensity,[20]; [22],17.5 MFI
same,fluorescence intensity,[20]; [23],33 MFI
same,fluorescence intensity,[21]; [24],25.5 MFI
same,fluorescence intensity,[21]; [25],26.5 MFI
same,fluorescence intensity,[21]; [26],26.8 MFI
same,fluorescence intensity,[21]; [27],27.5 MFI
same,fluorescence intensity,[21]; [28],27.8 MFI
same,fluorescence intensity,[21]; [29],28.5 MFI

# An excerpt of these results, as tab-separated lines:
binder	measurement	setting	value
4-127.5 (protein) chain 1: QVQLQESGPGLVKPSETLSLTCAVSGYSISSGYGWSWIRQPPGKGLEWIGYIGGSDSSTNYNPSLKSRVTISKDTSKNQLSLKLRSVTAADTAVYYCGSRGAVAGLGGLDSWGQGLLVTVSS chain 2: QSVLTQPPSVSGAPGQRVTISCTGSSSNIGAGYGVQWYQQLPGTAPKLLIYENNKRPSGVFDRFSGSQSGTSGSLTITGLQSEDEADYYCQSYDSSLKAVLFGGGTRLTVL	fluorescence intensity	[5]; [26]	21.5 MFI
same	fluorescence intensity	[5]; [29]	23 MFI
same	fluorescence intensity	[5]; [22]	29 MFI
same	fluorescence intensity	[15]; [29]	18 MFI
